These are yes or no findings as the source states them, for the method shown. Binding seen in cells or lysates may run through a third protein. Sequences can lack the tags named with a protein.
Target: T1, FS2-FBXL19 (epitope-tagged wild-type FBXL19, stable mouse ES cell line) (mouse) (UniProt Q6PB97)
T1 sequence: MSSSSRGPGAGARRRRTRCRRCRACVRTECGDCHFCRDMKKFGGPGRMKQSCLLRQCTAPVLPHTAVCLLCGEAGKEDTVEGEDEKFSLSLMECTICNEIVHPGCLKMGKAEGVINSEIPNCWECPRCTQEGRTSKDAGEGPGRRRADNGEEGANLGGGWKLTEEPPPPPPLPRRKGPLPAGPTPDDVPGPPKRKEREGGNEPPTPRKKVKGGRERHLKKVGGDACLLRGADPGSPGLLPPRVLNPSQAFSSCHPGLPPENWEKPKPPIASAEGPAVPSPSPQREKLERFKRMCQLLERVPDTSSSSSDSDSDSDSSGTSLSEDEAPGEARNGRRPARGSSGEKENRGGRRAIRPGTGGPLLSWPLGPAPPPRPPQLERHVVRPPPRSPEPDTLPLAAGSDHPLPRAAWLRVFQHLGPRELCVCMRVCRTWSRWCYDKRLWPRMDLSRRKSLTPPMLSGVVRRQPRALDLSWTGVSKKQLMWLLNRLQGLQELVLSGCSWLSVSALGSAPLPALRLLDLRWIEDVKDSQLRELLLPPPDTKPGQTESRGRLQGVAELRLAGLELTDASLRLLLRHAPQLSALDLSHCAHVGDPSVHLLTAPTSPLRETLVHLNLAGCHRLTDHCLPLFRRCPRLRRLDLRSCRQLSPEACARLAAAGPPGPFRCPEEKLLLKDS
Test: pull-down

By UniProt entry, the sequences of proteins in these tests, tags left out. Where a name states a change or a piece, a line headed by the entry shows the natural chain unless it says otherwise.
UniProt Q5DTM8: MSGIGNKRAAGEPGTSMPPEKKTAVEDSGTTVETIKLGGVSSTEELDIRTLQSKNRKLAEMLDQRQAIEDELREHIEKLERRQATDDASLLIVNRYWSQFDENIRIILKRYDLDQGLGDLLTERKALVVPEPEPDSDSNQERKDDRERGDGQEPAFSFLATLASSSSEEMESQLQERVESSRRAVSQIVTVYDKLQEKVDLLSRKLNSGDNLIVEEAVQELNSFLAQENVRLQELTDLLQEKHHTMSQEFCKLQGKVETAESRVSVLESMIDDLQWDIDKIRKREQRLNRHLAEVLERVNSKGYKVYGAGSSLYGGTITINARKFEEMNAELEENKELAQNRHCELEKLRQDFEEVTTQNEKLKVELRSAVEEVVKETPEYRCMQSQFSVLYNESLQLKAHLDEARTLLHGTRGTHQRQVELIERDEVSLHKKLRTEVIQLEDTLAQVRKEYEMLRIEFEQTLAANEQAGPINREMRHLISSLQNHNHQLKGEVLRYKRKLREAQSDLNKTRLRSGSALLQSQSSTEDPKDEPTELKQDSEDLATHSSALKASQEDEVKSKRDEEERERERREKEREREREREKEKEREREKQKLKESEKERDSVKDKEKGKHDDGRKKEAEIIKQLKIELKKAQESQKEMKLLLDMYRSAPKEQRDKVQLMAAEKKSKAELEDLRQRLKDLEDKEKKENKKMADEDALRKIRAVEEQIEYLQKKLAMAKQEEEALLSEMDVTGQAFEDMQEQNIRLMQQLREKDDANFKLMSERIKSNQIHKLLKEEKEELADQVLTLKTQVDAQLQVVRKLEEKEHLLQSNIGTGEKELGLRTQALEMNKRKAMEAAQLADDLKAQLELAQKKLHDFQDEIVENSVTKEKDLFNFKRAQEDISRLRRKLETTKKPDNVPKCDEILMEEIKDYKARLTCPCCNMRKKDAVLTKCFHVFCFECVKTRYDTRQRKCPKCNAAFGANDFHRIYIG

binding: no binding
Substance: RNF20/40 E3 ubiquitin ligase (from UniProt Q5DTM8 1-973; Q3U319 1-1001) (complex)

Reference: publication doi:10.1101/299552
